In paper PMC10269600:

Target: T1, IRF7-Flag (UniProt Q92985)
T1 sequence: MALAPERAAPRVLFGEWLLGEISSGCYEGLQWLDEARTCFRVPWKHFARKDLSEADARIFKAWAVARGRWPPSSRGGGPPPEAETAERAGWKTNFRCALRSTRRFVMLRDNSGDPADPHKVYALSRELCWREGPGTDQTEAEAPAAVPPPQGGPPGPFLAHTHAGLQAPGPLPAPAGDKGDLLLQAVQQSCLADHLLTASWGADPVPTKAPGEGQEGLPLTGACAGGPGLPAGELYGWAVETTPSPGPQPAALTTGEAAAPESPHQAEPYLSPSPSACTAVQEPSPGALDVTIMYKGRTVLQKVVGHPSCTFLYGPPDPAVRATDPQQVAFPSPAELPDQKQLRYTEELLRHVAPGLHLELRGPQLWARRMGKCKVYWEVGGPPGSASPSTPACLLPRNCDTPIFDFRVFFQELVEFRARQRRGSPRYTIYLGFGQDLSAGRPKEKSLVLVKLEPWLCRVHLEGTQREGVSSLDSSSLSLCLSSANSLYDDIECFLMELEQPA
Assay: co-IP; HEK293T cotransfected with the tagged plasmids; lysate precipitated with anti-Flag beads (6 h, 4°C), washed six times with PBS, eluted with glycine pH 2.4; immunoblot for the partner's tag

Row | Substance | binding
1 | EV-D68 VP3_(Δ61–70)-Myc (from UniProt Q68T42) | binds
2 | EV-D68 VP3_(Δ41–50)-Myc (from UniProt Q68T42) | binds

No constants are given. Whether binding was seen depends on the method and setting. In cells and extracts the contact can be indirect. Binding can be weak; no strength is given. Where a sequence is shown, tags or fusion partners need not be part of it.
